# In publication PMC8910062:
# By UniProt entry, the sequences of proteins in these tests, tags left out. Residues count along the entry.
# UniProt P46379: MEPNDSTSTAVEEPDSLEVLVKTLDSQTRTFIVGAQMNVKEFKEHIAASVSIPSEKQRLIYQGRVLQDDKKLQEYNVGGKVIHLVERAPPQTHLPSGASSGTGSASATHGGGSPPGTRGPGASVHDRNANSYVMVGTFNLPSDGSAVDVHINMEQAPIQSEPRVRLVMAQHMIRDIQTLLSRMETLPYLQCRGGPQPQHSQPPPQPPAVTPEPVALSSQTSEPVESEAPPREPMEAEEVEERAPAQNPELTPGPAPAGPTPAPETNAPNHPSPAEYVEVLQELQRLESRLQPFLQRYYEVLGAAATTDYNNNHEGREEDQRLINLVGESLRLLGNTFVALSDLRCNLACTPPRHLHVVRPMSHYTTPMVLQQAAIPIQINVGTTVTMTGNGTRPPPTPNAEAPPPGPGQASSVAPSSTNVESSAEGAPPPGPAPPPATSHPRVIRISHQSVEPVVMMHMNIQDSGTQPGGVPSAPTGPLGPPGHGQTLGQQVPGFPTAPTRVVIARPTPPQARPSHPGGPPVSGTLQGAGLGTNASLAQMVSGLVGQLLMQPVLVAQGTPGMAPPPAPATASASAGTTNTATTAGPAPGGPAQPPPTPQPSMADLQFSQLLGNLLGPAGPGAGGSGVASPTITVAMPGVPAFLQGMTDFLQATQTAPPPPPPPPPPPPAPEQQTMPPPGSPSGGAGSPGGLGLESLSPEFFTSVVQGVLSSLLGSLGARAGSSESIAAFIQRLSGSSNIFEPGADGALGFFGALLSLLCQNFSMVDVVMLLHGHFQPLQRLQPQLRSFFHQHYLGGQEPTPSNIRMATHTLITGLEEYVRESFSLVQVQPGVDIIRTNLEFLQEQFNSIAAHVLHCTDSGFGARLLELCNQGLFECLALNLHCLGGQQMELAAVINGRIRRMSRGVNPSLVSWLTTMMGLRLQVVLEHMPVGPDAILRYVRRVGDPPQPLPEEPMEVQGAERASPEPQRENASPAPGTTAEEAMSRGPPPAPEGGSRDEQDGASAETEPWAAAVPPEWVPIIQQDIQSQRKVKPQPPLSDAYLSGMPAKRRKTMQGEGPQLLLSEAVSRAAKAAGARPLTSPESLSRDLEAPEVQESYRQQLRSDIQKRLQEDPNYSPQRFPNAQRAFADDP
# UniProt P51570: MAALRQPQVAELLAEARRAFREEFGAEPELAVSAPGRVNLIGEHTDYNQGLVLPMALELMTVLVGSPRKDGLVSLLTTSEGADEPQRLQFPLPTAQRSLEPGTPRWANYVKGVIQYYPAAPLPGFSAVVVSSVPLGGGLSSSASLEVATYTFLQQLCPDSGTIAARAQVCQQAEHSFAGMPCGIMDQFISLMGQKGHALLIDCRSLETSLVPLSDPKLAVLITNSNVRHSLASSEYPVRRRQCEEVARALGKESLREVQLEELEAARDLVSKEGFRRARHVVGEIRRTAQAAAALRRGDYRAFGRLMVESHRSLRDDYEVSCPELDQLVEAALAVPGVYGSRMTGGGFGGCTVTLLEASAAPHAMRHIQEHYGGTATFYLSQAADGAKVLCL
# UniProt P25788: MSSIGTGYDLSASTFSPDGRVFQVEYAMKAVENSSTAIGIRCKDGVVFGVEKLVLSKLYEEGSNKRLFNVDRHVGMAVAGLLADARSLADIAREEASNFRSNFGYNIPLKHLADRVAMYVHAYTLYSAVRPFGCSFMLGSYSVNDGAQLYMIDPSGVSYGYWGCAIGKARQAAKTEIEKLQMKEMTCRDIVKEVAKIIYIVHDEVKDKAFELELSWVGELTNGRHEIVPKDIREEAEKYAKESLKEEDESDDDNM
# UniProt P28066: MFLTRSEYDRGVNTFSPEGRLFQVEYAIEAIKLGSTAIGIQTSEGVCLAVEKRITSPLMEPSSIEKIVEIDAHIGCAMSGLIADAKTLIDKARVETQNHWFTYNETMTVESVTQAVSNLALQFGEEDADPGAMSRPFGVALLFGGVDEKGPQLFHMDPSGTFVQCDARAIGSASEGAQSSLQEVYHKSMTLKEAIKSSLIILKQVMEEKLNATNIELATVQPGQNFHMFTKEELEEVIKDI
# UniProt O75396: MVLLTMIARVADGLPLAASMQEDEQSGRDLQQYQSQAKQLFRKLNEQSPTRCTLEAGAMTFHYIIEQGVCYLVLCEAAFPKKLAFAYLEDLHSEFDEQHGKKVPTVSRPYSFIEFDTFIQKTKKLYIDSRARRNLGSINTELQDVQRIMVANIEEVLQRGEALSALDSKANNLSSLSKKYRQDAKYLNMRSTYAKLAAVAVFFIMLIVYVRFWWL
# UniProt P50995: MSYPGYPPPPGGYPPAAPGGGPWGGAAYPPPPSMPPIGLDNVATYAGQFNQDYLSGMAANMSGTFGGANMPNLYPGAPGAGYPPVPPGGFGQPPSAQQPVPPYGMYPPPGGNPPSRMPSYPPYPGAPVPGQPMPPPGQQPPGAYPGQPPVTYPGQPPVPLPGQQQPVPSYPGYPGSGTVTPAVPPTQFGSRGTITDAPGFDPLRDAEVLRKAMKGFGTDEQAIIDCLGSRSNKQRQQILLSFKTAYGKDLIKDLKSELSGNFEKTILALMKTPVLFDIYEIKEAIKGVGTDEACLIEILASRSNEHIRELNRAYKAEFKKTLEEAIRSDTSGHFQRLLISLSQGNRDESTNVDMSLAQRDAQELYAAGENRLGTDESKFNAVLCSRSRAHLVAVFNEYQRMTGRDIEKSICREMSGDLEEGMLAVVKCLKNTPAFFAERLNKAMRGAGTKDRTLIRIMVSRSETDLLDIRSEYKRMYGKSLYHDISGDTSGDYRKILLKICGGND
# UniProt O60884: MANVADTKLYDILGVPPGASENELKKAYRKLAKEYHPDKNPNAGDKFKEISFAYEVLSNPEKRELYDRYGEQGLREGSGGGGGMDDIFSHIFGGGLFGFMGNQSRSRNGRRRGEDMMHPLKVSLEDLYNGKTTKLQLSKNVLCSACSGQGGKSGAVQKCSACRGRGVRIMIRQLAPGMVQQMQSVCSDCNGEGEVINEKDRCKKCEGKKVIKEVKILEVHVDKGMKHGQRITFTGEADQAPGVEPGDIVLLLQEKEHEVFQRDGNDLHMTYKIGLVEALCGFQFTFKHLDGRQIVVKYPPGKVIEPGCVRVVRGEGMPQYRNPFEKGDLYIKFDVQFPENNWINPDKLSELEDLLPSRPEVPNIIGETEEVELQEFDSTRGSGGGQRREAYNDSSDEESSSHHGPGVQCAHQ
# UniProt Q8WW22: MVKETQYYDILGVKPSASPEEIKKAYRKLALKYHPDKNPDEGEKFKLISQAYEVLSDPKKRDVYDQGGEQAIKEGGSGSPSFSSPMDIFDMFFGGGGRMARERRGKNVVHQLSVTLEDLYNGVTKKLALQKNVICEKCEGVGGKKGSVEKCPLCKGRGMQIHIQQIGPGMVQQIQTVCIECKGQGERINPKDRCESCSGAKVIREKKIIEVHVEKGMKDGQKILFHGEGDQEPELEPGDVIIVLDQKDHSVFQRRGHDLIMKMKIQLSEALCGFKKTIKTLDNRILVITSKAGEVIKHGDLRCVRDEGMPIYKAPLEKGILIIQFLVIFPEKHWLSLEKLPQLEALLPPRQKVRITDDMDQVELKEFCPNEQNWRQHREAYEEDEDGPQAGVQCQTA
# UniProt P49721: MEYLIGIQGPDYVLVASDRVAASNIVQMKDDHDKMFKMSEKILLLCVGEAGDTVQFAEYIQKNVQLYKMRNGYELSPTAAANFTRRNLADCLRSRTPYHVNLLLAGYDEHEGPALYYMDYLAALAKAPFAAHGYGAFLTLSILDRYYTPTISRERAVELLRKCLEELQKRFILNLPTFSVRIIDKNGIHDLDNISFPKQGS
# UniProt Q13586, residues 23-685: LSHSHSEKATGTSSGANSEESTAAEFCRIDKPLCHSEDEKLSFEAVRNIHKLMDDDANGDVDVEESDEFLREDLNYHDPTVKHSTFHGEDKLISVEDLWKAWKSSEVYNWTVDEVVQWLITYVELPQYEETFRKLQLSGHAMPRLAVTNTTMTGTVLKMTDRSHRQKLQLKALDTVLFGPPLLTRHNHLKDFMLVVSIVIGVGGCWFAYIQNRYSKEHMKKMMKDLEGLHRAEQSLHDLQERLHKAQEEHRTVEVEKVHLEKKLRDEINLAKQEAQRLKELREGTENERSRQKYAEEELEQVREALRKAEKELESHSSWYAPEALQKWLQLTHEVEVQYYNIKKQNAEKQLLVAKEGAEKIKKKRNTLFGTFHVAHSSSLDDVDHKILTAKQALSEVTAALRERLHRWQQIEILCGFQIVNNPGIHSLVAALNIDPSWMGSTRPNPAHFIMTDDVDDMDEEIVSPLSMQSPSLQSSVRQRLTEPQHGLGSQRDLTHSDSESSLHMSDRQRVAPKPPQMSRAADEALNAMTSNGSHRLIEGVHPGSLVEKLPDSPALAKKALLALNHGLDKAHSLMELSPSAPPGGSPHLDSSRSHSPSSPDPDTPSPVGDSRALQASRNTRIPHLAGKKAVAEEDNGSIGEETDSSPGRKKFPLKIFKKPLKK
# UniProt P56962: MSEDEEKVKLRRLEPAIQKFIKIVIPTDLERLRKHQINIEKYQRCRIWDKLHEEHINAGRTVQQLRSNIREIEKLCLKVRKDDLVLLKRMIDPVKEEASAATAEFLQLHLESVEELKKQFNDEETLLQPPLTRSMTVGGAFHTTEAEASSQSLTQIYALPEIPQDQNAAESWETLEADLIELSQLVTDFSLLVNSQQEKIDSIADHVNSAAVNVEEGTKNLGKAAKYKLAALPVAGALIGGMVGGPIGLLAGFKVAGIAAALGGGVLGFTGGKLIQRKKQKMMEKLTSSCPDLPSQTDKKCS
# Results are given in words; binding and its absence hold for the method and conditions named. Binding seen in cells or lysates may run through a third protein. These calls come from enrichment with a bait or labelling near it, and not all partners need be listed.
# Target: FLAG-BirA*-∆F508-CFTR (UniProt P13569)
# Experiment: proximity labelling; BioID in living HEK293 Flp-In T-REx cells: FLAG-BirA*-CFTR or FLAG-BirA*-∆F508-CFTR bait induced with 1 µg/mL tetracycline, 50 µM biotin; biotinylated preys captured on streptavidin beads and identified by mass spectrometry; SAINT against FlagBirA* alone, BFDR ≤ 0.01; WT in vehicle (0.1% DMSO); ∆F508 in vehicle or Orkambi (3 µM VX-809 + 1 µM VX-770), with or without MG132
row,binding,Molecule
1,binds,BAG6 (Bcl2-associated athanogene 6) (from UniProt P46379 1-1132)
2,binds,DJA1 (from UniProt P31689 1-397)
3,binds,GALK1 (from UniProt P51570 1-392)
4,binds,PSMA3 (from UniProt P25788 1-255)
5,binds,PSMA5 (from UniProt P28066 1-241)
6,binds,SEC22B (from UniProt O75396 1-215)
7,binds,SLC25A1 (from UniProt P53007 14-311)
8,binds,Stress-induced phosphoprotein 1 (Stip1) (from UniProt P31948 1-543)
9,binds,sequestosome 1 (SQSTM1) (from UniProt Q13501 1-440)
10,binds,"COPB2 (COPI Coat Complex Subunit Beta 2) (protein, UniProt P35606 1-906) MPLRLDIKRKLTARSDRVKSVDLHPTEPWMLASLYNGSVCVWNHETQTLVKTFEVCDLPVRAAKFVARKNWVVTGADDMQIRVFNYNTLERVHMFEAHSDYIRCIAVHPTQPFILTSSDDMLIKLWDWDKKWSCSQVFEGHTHYVMQIVINPKDNNQFASASLDRTIKVWQLGSSSPNFTLEGHEKGVNCIDYYSGGDKPYLISGADDRLVKIWDYQNKTCVQTLEGHAQNVSCASFHPELPIIITGSEDGTVRIWHSSTYRLESTLNYGMERVWCVASLRGSNNVALGYDEGSIIVKLGREEPAMSMDANGKIIWAKHSEVQQANLKAMGDAEIKDGERLPLAVKDMGSCEIYPQTIQHNPNGRFVVVCGDGEYIIYTAMALRNKSFGSAQEFAWAHDSSEYAIRESNSIVKIFKNFKEKKSFKPDFGAESIYGGFLLGVRSVNGLAFYDWDNTELIRRIEIQPKHIFWSDSGELVCIATEESFFILKYLSEKVLAAQETHEGVTEDGIEDAFEVLGEIQEIVKTGLWVGDCFIYTSSVNRLNYYVGGEIVTIAHLDRTMYLLGYIPKDNRLYLGDKELNIISYSLLVSVLEYQTAVMRRDFSMADKVLPTIPKEQRTRVAHFLEKQGFKQQALTVSTDPEHRFELALQLGELKIAYQLAVEAESEQKWKQLAELAISKCQFGLAQECLHHAQDYGGLLLLATASGNANMVNKLAEGAERDGKNNVAFMSYFLQGKVDACLELLIRTGRLPEAAFLARTYLPSQVSRVVKLWRENLSKVNQKAAESLADPTEYENLFPGLKEAFVVEEWVKETHADLWPAKQYPLVTPNEERNVMEEGKDFQPSRSTAQQELDGKPASPTPVIVASHTANKEEKSLLELEVDLDNLELEDIDTTDINLDEDILDD"

# More lines, now with the values behind:
row,Molecule,binding
1,ANXA11 (from UniProt P50995 1-505),binds
2,DJA2 (from UniProt O60884 1-412),binds
3,DNAJA4 (from UniProt Q8WW22 1-397),binds
4,PSMB2 (from UniProt P49721 1-201),binds
5,Stromal Interaction Molecule 1 (STIM1) (from UniProt Q13586 23-685),binds
6,Syntaxin-17 (STX17) (from UniProt P56962 1-302),binds
7,"OCLN (Occludin) (protein, UniProt Q16625 1-522) MSSRPLESPPPYRPDEFKPNHYAPSNDIYGGEMHVRPMLSQPAYSFYPEDEILHFYKWTSPPGVIRILSMLIIVMCIAIFACVASTLAWDRGYGTSLLGGSVGYPYGGSGFGSYGSGYGYGYGYGYGYGGYTDPRAAKGFMLAMAAFCFIAALVIFVTSVIRSEMSRTRRYYLSVIIVSAILGIMVFIATIVYIMGVNPTAQSSGSLYGSQIYALCNQFYTPAATGLYVDQYLYHYCVVDPQEAIAIVLGFMIIVAFALIIFFAVKTRRKMDRYDKSNILWDKEHIYDEQPPNVEEWVKNVSAGTQDVPSPPSDYVERVDSPMAYSSNGKVNDKRFYPESSYKSTPVPEVVQELPLTSPVDDFRQPRYSSGGNFETPSKRAPAKGRAGRSKRTEQDHYETDYTTGGESCDELEEDWIREYPPITSDQQRQLYKRNFDTGLQEYKSLQSELDEINKELSRLDKELDDYREESEEYMAAADEYNRLKQVKGSADYKSKKNHCKQLKSKLSHIKKMVGDYDRQKT",binds
